For experiment [1], the target named is FLAG-tagged hnRNPUL1 WT (full length) (human) (UniProt Q9BUJ2). Description: co-IP.
The target in experiment [2] is FLAG-tagged hnRNPUL1 ΔWA (Walker A motif mutant) (human) (UniProt Q9BUJ2). Description: co-IP.

By UniProt entry, the sequences of proteins in these tests, tags left out. Where a name states a change or a piece, a line headed by the entry shows the natural chain unless it says otherwise. Chains listed by the source or under a name are the forms on record and can include a tag or linker.
UniProt Q9BUJ2: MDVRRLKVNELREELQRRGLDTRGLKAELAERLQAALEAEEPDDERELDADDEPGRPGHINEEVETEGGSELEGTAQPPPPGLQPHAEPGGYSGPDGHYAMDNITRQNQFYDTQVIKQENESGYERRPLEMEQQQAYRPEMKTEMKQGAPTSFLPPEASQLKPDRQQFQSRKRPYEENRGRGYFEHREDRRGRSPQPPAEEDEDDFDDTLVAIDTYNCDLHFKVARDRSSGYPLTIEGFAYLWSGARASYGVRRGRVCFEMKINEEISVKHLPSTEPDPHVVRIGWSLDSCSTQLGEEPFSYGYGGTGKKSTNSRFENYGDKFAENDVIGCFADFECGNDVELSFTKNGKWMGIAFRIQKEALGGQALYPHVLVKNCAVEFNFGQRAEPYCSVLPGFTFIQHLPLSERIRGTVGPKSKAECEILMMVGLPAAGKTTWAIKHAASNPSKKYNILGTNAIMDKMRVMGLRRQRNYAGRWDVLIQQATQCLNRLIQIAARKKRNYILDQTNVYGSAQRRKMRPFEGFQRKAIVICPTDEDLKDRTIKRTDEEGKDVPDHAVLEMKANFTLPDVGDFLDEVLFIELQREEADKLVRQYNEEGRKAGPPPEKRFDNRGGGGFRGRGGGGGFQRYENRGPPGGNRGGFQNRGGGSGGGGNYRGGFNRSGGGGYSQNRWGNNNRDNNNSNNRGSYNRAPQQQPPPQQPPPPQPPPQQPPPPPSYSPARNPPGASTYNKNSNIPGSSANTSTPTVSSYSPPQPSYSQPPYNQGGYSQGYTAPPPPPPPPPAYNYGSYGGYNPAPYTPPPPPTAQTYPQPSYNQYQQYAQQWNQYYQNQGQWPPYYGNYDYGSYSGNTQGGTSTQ
FLAG-tagged hnRNPUL1 ΔWA (Walker A motif mutant) (Q9BUJ2, form named): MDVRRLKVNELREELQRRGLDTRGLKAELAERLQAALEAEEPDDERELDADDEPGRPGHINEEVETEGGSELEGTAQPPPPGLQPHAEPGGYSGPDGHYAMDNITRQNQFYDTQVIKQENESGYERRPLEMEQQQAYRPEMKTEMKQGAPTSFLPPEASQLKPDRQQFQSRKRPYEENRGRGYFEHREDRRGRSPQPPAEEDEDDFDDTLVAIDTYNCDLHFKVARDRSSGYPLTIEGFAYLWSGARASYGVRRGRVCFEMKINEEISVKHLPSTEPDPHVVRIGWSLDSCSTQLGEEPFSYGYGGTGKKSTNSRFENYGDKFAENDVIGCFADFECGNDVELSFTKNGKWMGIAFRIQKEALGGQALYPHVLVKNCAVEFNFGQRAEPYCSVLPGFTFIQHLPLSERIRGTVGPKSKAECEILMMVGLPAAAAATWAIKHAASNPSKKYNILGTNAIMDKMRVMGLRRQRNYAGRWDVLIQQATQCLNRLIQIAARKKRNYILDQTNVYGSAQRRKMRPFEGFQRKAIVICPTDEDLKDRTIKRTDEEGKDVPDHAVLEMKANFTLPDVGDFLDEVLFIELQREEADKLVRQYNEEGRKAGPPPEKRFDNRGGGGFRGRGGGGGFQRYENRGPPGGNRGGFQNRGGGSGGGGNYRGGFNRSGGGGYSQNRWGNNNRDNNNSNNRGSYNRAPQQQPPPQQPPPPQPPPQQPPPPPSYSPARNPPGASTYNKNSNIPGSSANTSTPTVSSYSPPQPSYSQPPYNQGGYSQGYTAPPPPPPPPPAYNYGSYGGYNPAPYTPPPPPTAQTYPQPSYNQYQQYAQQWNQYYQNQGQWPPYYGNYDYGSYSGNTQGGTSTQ
UniProt P67775: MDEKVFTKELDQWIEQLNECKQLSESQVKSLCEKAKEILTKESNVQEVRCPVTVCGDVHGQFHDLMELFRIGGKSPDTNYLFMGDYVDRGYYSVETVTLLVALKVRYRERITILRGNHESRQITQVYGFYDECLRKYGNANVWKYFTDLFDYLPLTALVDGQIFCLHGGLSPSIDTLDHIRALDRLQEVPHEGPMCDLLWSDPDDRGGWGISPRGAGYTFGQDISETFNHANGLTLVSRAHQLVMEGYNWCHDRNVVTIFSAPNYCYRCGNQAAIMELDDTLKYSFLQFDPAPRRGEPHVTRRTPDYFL

Results are given in words; binding and its absence hold for the method and conditions named. Binding seen in cells or lysates may run through a third protein. Binding calls can cover weak binding; strength is not graded here.

In the case of PPP2AC (from UniProt P67775) (enzyme), the binding result in experiment [1] and in experiment [2] was “binds” in each case.

Values taken from publication doi:10.1101/2023.07.22.550030.
